Counter-ions that a name gives are not always drawn. Some of the results follow. Hit calls seldom repeat between salt and free forms of one compound.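 In K562 cells expressing nanoluciferase-fused kinases, luminescence was recorded at 4 h intervals between 2 and 18 h, normalized as percent of control with DMSO at 100% and a positive control at 0%. A significant (2 sigma) signal drop marks a time point as decreased. The authors' rule for a hit is not shown and takes in more than the number of time points.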
What was measured:
Assay in all cases: number of time points (of 5) at which kinase-Nluc abundance scored as decreased, DMSO-normalised (count); higher = more persistent destabilization
Settings in all cases: K562; 2-18 h
FLT3 = FLT3 (UniProt P36888)
FYN = FYN (UniProt P06241)
GSK3A = GSK3A (UniProt P49840)
HER2 = HER2 (UniProt P04626)
INSRR = INSRR (UniProt P14616)
IRAK3 = IRAK3 (UniProt Q9Y616)
JAK1 = JAK1 (UniProt P23458)
LCK = LCK (UniProt P06239)
LIMK1 = LIMK1 (UniProt P53667)
LIMK2 = LIMK2 (UniProt P53671)

Protein sequences, listed by entry. Tags and fused reporters are not part of them. Lines headed by an entry give the natural chain unless they say otherwise; changes in a name come on top.
UniProt P36888, whole entry: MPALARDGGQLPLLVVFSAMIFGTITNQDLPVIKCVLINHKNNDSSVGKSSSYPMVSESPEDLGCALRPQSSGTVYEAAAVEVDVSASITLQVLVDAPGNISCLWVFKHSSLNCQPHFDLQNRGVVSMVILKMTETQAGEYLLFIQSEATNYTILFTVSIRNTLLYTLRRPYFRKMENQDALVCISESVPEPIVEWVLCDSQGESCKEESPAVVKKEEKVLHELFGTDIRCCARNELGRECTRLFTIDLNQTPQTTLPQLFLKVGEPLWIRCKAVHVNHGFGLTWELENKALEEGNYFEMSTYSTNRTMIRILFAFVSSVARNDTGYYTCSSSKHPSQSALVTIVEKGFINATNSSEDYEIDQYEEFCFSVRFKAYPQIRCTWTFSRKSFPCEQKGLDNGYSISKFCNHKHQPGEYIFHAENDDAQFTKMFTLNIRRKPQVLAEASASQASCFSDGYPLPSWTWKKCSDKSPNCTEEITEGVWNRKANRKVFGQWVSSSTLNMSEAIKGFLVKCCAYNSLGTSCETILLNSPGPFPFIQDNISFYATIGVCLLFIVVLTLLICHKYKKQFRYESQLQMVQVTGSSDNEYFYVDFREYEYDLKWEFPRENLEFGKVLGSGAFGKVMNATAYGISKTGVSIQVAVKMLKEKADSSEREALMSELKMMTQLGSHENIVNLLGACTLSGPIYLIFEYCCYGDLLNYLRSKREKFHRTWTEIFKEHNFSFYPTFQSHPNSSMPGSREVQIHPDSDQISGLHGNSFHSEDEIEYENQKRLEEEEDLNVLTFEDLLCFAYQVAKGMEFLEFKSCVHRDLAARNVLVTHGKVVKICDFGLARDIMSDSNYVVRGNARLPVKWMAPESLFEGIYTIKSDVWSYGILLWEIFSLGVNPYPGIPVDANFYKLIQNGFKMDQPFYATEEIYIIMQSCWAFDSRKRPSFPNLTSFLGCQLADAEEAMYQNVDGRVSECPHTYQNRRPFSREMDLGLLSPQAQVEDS
UniProt P06241, whole entry, looked up: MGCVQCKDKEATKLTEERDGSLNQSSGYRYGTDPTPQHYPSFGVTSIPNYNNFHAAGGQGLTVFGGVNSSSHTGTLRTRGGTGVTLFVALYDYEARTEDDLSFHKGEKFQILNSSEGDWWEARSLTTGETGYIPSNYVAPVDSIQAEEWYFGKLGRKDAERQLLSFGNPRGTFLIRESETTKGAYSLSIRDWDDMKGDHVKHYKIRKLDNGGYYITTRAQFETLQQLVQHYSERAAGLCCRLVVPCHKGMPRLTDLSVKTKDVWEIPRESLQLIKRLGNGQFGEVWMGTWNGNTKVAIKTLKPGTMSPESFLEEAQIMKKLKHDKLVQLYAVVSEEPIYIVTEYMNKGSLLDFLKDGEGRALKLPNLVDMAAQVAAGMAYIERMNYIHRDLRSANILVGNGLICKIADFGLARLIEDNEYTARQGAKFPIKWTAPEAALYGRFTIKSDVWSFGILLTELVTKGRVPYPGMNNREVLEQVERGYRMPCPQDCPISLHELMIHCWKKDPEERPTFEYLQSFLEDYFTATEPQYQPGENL
UniProt P49840: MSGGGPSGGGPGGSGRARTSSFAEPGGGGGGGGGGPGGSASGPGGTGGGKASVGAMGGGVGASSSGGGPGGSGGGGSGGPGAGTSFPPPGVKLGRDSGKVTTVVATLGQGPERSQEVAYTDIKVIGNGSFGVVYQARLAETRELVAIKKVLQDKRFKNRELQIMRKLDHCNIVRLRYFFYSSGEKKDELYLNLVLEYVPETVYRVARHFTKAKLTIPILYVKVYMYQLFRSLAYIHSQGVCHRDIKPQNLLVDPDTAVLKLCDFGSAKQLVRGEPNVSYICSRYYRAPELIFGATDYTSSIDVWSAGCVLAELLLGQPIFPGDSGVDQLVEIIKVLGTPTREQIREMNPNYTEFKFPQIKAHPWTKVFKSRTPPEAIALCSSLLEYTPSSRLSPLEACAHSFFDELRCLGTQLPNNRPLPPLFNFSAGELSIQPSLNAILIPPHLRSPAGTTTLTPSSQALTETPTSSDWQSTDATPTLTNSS
UniProt P14616: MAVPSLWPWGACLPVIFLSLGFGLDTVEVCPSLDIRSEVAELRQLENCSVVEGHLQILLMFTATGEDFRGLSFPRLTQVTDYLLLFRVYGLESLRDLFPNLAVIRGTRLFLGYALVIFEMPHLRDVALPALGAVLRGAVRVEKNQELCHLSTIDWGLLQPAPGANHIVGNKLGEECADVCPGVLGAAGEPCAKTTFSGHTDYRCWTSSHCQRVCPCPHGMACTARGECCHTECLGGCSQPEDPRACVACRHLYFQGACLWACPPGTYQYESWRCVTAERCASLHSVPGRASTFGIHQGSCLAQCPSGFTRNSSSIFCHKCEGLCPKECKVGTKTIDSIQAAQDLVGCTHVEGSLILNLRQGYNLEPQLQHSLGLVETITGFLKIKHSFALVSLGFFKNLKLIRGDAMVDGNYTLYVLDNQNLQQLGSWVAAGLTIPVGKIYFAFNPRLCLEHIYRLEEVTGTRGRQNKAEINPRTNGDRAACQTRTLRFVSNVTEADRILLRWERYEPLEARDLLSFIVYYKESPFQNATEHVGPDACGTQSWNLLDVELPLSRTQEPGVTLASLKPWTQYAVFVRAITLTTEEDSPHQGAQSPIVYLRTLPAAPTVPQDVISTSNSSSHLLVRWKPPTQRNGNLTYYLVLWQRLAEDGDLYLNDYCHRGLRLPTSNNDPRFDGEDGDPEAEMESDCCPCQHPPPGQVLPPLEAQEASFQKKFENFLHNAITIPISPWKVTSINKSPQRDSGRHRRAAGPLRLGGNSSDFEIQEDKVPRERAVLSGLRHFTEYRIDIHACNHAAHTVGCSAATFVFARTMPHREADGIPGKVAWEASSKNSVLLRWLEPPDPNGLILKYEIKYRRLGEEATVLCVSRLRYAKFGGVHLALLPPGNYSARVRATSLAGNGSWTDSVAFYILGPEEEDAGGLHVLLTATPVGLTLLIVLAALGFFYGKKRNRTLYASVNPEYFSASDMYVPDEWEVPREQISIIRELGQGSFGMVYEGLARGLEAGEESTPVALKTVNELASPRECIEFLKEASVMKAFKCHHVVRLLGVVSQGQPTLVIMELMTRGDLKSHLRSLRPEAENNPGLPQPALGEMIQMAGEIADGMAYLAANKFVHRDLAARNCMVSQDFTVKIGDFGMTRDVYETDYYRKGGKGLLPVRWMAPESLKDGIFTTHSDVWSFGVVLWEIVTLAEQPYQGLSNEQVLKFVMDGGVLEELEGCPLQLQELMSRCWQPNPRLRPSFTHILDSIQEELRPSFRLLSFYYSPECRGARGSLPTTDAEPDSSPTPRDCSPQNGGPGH
UniProt Q9Y616: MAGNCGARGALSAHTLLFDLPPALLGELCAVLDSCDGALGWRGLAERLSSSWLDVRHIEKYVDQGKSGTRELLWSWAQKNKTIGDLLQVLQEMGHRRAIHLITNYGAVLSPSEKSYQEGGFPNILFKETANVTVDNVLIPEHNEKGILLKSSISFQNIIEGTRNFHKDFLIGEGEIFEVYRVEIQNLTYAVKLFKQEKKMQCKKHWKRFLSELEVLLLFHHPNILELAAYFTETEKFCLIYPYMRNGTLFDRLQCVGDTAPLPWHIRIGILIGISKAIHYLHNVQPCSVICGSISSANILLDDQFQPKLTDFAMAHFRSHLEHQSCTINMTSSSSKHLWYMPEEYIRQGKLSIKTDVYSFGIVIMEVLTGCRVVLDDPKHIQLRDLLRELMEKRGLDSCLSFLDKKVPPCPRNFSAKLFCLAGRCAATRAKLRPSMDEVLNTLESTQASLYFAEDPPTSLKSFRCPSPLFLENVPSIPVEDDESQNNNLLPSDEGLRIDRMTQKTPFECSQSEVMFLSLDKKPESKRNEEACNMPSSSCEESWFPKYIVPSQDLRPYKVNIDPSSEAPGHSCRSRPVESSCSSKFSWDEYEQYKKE
UniProt P23458: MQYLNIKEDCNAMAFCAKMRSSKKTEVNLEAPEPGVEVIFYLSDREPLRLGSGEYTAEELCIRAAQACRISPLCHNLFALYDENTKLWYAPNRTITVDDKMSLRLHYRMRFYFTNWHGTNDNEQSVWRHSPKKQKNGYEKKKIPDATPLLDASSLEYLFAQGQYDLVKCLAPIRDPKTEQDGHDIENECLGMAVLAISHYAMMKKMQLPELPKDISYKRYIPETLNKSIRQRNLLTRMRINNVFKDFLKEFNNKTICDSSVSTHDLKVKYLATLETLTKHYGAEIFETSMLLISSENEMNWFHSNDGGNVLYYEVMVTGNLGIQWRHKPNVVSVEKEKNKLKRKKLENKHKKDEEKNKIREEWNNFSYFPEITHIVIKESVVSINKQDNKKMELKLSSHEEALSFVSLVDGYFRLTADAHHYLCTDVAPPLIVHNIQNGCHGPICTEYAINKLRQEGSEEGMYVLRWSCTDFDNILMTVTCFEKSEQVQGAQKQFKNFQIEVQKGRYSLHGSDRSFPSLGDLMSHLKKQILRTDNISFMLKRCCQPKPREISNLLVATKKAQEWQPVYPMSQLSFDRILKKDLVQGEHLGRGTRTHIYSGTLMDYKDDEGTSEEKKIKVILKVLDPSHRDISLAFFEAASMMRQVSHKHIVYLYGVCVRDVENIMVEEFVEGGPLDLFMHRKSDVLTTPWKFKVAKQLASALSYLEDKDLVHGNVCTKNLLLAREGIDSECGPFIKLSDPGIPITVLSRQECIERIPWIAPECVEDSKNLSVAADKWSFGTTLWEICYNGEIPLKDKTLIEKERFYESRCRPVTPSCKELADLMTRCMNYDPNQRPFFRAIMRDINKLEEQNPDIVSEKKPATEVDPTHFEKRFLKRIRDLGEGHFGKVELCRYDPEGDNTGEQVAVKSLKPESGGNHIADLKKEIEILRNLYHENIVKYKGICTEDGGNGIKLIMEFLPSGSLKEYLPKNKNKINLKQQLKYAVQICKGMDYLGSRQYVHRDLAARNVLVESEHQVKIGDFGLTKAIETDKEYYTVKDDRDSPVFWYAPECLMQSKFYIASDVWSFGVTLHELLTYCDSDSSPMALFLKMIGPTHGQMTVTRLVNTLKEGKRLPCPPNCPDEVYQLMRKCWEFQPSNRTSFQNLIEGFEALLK
UniProt P53667: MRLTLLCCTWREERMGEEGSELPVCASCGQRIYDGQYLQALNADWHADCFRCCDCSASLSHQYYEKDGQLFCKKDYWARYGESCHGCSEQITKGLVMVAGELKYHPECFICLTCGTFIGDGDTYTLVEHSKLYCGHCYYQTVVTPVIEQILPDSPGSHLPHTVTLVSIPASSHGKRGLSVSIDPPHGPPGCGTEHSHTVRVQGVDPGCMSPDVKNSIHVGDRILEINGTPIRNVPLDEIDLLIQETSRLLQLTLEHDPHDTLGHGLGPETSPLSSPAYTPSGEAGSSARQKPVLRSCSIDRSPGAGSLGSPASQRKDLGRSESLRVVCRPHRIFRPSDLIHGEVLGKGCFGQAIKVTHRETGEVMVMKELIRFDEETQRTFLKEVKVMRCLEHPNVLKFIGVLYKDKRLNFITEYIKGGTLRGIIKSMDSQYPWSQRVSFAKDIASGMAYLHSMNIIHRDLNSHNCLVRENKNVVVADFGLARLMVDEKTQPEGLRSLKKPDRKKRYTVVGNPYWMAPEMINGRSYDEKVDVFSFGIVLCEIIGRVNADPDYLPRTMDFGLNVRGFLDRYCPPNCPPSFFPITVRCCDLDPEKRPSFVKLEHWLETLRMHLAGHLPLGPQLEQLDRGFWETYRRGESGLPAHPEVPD
UniProt P53671: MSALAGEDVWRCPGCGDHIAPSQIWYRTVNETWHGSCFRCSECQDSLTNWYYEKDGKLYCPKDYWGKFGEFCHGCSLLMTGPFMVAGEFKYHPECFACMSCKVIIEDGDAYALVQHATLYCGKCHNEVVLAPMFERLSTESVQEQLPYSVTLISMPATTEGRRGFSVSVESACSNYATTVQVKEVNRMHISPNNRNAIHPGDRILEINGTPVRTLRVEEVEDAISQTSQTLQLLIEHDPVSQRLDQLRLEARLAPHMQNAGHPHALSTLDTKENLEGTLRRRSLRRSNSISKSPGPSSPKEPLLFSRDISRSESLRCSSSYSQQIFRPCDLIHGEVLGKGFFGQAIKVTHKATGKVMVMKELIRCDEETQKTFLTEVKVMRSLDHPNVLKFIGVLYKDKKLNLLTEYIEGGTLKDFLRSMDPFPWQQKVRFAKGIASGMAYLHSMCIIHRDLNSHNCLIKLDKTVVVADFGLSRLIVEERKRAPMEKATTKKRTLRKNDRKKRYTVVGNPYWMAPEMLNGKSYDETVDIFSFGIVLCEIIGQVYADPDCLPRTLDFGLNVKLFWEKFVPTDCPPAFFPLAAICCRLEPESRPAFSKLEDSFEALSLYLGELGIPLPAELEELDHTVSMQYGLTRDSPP

Row | SMILES | number of time points (FLT3) | number of time points (FYN) | number of time points (GSK3A) | number of time points (HER2) | number of time points (INSRR) | number of time points (IRAK3) | number of time points (JAK1) | number of time points (LCK) | number of time points (LIMK1) | number of time points (LIMK2)
1 | CCOC(=O)N1C/C(=C/c2ccccc2F)C(=O)/C(=C\c2ccccc2F)C1 (2.5 µM) | 0 | 0 | 0 | 0 | 0 | 0 | 0 | 0 | 0 | 0
2 | O=c1[nH]c(C2CCCN2)nc2c1oc1ccc(Cl)cc12 (stereo not given) [XL413 (hydrochloride)] (10 µM) | 0 | 0 | 0 | 0 | 0 | 0 | 0 | 0 | 0 | 0
3 | COc1cc(N(C)CCN(C)C)c(N)cc1Nc1nccc(-c2cn(C)c3ccccc23)n1 [Mutated EGFR-IN-1] (10 µM) | 0 | 1 | 0 | 0 | 0 | 0 | 0 | 0 | 2 | 0
4 | CNC(=O)c1cc2c(Oc3ccc(NC(=S)NC(=O)Cc4ccccc4)cc3F)ccnc2cc1OC [TAS-115 mesylate] (10 µM) | 3 | 0 | 0 | 0 | 3 | 3 | 3 | 0 | 0 | 0
5 | CNC(=O)c1ccccc1Nc1nc(Nc2ccc3c(c2OC)CCC[C@H](N2CCN(CCO)CC2)C3)ncc1Cl (10 µM) | 0 | 2 | 0 | 1 | 3 | 3 | 2 | 0 | 4 | 3
6 | CCCCCCCC/C=C\CCCCCCCCCCCC(=O)O [Erucic acid] (10 µM) | 0 | 0 | 0 | 0 | 0 | 0 | 0 | 0 | 0 | 0
7 | Cc1cc(-c2ccnc(Nc3cnn(C)c3)n2)ccc1CNC(=O)N1CC(OC(C)C)C1 (10 µM) | 0 | 0 | 0 | 0 | 0 | 0 | 0 | 0 | 0 | 0
8 | Cc1c(-c2ccc(C(N)=O)c3[nH]c4cc(C(C)(C)O)ccc4c23)cccc1-n1cnc2ccccc2c1=O (2.5 µM) | 0 | 0 | 0 | 0 | 0 | 0 | 0 | 0 | 0 | 0
9 | Cc1cc(C)nc(NS(=O)(=O)c2ccc(NC(=S)NC(=O)COc3ccc(Br)cc3Cl)cc2)n1 (2.5 µM) | 0 | 0 | 0 | 0 | 0 | 0 | 0 | 0 | 0 | 0
10 | CC(C)(O)[C@H]1CC[C@H](Nc2ccc3ncc(-c4cccc(C(F)(F)F)c4)n3n2)CC1 (10 µM) | 0 | 0 | 0 | 0 | 0 | 0 | 0 | 0 | 0 | 0
11 | O=C(Nc1nc(=O)n(Cc2ccc(Cl)cc2)s1)c1ccc(Cl)cc1 (10 µM) | 0 | 0 | 0 | 0 | 0 | 0 | 0 | 0 | 0 | 0
12 | CN(C)S(=O)(=O)c1ccc2c(c1)/C(=C/c1cc3c([nH]1)CCCC3)C(=O)N2 (2.5 µM) | 0 | 2 | 0 | 0 | 4 | 0 | 0 | 2 | 0 | 0
13 | N#CC(c1ccnc(OCc2ccc(CN3CCOCC3)cc2)n1)c1nc2ccccc2s1 (stereo not given) [Bentamapimod] (2.5 µM) | 0 | 0 | 0 | 0 | 0 | 0 | 0 | 0 | 0 | 0
14 | C=CC(=O)Nc1cccc(-c2cccc3cnc(Nc4ccc(N5CCN(CCO)CC5)c(F)c4F)nc23)c1 [Olafertinib] (2.5 µM) | 0 | 0 | 0 | 0 | 0 | 0 | 0 | 0 | 0 | 0
15 | CNc1cc(Nc2cccn(-c3ccccn3)c2=O)nn2c(C(=O)N[C@@H]3C[C@@H]3F)cnc12 (2.5 µM) | 0 | 0 | 0 | 0 | 0 | 0 | 0 | 0 | 0 | 0
16 | CN(C)CCC=C1c2ccccc2CCc2ccccc21 [Amitriptyline (hydrochloride)] (2.5 µM) | 0 | 0 | 0 | 0 | 0 | 0 | 0 | 0 | 0 | 0
17 | Cc1nn(C)c2c1C(c1ccc(C(F)(F)F)cc1)C(C#N)=C(N)O2 (stereo not given) (10 µM) | 0 | 0 | 0 | 0 | 0 | 0 | 0 | 0 | 0 | 0

A draw from above in order of length of the SMILES, rising:
Row | SMILES | number of time points (FLT3) | number of time points (FYN) | number of time points (GSK3A) | number of time points (HER2) | number of time points (INSRR) | number of time points (IRAK3) | number of time points (JAK1) | number of time points (LCK) | number of time points (LIMK1) | number of time points (LIMK2)
3 | COc1cc(N(C)CCN(C)C)c(N)cc1Nc1nccc(-c2cn(C)c3ccccc23)n1 [Mutated EGFR-IN-1] (10 µM) | 0 | 1 | 0 | 0 | 0 | 0 | 0 | 0 | 2 | 0
4 | CNC(=O)c1cc2c(Oc3ccc(NC(=S)NC(=O)Cc4ccccc4)cc3F)ccnc2cc1OC [TAS-115 mesylate] (10 µM) | 3 | 0 | 0 | 0 | 3 | 3 | 3 | 0 | 0 | 0
8 | Cc1c(-c2ccc(C(N)=O)c3[nH]c4cc(C(C)(C)O)ccc4c23)cccc1-n1cnc2ccccc2c1=O (2.5 µM) | 0 | 0 | 0 | 0 | 0 | 0 | 0 | 0 | 0 | 0
